From patent US20260001910A1 (PreveCeutical Medical Inc., priority 2021, published 2026)
Strings that start with PEPTIDE1 are HELM notation: dots part the residues, brackets hold end groups and non-standard residues.

Assay: general procedure: Fmoc solid-phase peptide synthesis; Rink Amide resin (0.47 meq/g); Oxyma Pure and DIPCDI
Conditions: whole synthesis

## PEPTIDE1{[dY].G.G.[dF].[dL].[dR].[dR].[am]}$$$$V2.0
  final HPLC purity: 98.3%
